Results are given in words; binding and its absence hold for the method and conditions named. In cells and extracts the contact can be indirect. Some entries that bind do so weakly or less than the wild type.
Target: EGFR (human (endogenous in granulosa cells)) (UniProt P00533)
Assay: co-IP; endogenous proteins in non-denaturing lysate of granulosa cells; antibody overnight at 4°C, protein-A/G beads 1 hour at 4°C, three washes, Western blot; precipitating antibody not named

B1: SPRY2 (protein, UniProt O43597 1-315)
chain: MEARAQSGNGSQPLLQTPRDGGRQRGEPDPRDALTQQVHVLSLDQIRAIRNTNEYTEGPTVVPRPGLKPAPRPSTQHKHERLHGLPEHRQPPRLQHSQVHSSARAPLSRSISTVSSGSRSSTRTSTSSSSSEQRLLGSSFSSGPVADGIIRVQPKSELKPGELKPLSKEDLGLHAYRCEDCGKCKCKECTYPRPLPSDWICDKQCLCSAQNVIDYGTCVCCVKGLFYHCSNDDEDNCADNPCSCSQSHCCTRWSAMGVMSLFLPCLWCYLPAKGCLKLCQGCYDRVNRPGCRCKNSNTVCCKVPTVPPRNFEKPT
- binding: binds
